According to the supplement of paper PMC8728848:
Some of the results follow.

Legend:
Test in all cases: glycan array binding signal (z-score within array); higher = stronger binding
Conditions in all cases: glycan notation: IUPAC condensed, linker removed
[1] = target: Fuc(a1-2)[Gal(a1-3)]Gal(b1-4)GlcNAc(b1-2)Man(a1-3)[Fuc(a1-2)[Gal(a1-3)]Gal(b1-4)GlcNAc(b1-2)Man(a1-6)]Man(b1-4)GlcNAc(b1-4)GlcNAc
Summary of the method: (§1)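 The binding signal is a Z-score computed within each array. Data were drawn from 3228 arrays in the Consortium for Functional Glycomics database, restricted to those with a known protein sequence. Scores were averaged over arrays of the same protein sequence at different concentrations or buffers, and over linkers, and negative values can be taken as non-binding.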

[2] = target: Fuc(a1-2)[Gal(a1-3)]Gal(b1-4)GlcNAc(b1-2)Man(a1-3)[Fuc(a1-2)[Gal(a1-3)]Gal(b1-4)GlcNAc(b1-2)Man(a1-6)]Man(b1-4)GlcNAc(b1-4)[Fuc(a1-6)]GlcNAc
Summary of the method: as §1

[3] = target: Fuc(a1-2)[Gal(a1-3)]Gal(b1-4)GlcNAc(b1-3)GalNAc
Summary of the method: as §1

[4] = target: Fuc(a1-2)[Gal(a1-3)]Gal(b1-4)GlcNAc(b1-3)[Fuc(a1-2)[Gal(a1-3)]Gal(b1-4)GlcNAc(b1-6)]GalNAc
Summary of the method: as §1

[5] = target: Fuc(a1-2)[Gal(a1-3)]Gal(b1-4)GlcNAc(b1-6)GalNAc
Summary of the method: as §1

[6] = target: Fuc(a1-2)[Gal(a1-3)]Gal(b1-4)[Fuc(a1-3)]Glc
Summary of the method: as §1

[7] = target: Fuc(a1-2)[Gal(a1-3)]Gal(b1-4)[Fuc(a1-3)]GlcNAc
Summary of the method: as §1

[8] = target: Fuc(a1-2)[Gal(a1-3)]Gal(b1-4)[Fuc(a1-3)]GlcNAc(b1-3)GalNAc
Summary of the method: as §1

[9] = target: Fuc(a1-2)[Gal(a1-4)]Gal(b1-4)GlcNAc
Summary of the method: as §1

[10] = target: Fuc(a1-2)[GalNAc(a1-3)]Gal
Summary of the method: as §1

[11] = target: Fuc(a1-2)[GalNAc(a1-3)]Gal(b1-3)GalNAc(a1-3)[Fuc(a1-2)]Gal(b1-4)GlcNAc
Summary of the method: as §1

[12] = target: Fuc(a1-2)[GalNAc(a1-3)]Gal(b1-3)GalNAc(b1-3)Gal(a1-4)Gal(b1-4)Glc
Summary of the method: as §1

[13] = target: Fuc(a1-2)[GalNAc(a1-3)]Gal(b1-3)GlcNAc
Summary of the method: as §1

[14] = target: Fuc(a1-2)[GalNAc(a1-3)]Gal(b1-3)GlcNAc(b1-2)Man(a1-3)[Fuc(a1-2)[GalNAc(a1-3)]Gal(b1-3)GlcNAc(b1-2)Man(a1-6)]Man(b1-4)GlcNAc(b1-4)GlcNAc
Summary of the method: as §1

[15] = target: Fuc(a1-2)[GalNAc(a1-3)]Gal(b1-3)GlcNAc(b1-2)Man(a1-3)[Fuc(a1-2)[GalNAc(a1-3)]Gal(b1-3)GlcNAc(b1-2)Man(a1-6)]Man(b1-4)GlcNAc(b1-4)[Fuc(a1-6)]GlcNAc
Summary of the method: as §1

[16] = target: Fuc(a1-2)[GalNAc(a1-3)]Gal(b1-3)GlcNAc(b1-3)GalNAc
Summary of the method: as §1

[17] = target: Fuc(a1-2)[GalNAc(a1-3)]Gal(b1-3)GlcNAc(b1-6)GalNAc
Summary of the method: as §1

[18] = target: Fuc(a1-2)[GalNAc(a1-3)]Gal(b1-4)Glc
Summary of the method: as §1

[19] = target: Fuc(a1-2)[GalNAc(a1-3)]Gal(b1-4)GlcNAc
Summary of the method: as §1

[20] = target: Fuc(a1-2)[GalNAc(a1-3)]Gal(b1-4)GlcNAc(b1-2)Man
Summary of the method: as §1

[21] = target: Fuc(a1-2)[GalNAc(a1-3)]Gal(b1-4)GlcNAc(b1-2)Man(a1-3)[Fuc(a1-2)[GalNAc(a1-3)]Gal(b1-4)GlcNAc(b1-2)Man(a1-6)]Man(b1-4)GlcNAc(b1-4)GlcNAc
Summary of the method: as §1

[22] = target: Fuc(a1-2)[GalNAc(a1-3)]Gal(b1-4)GlcNAc(b1-2)Man(a1-3)[Fuc(a1-2)[GalNAc(a1-3)]Gal(b1-4)GlcNAc(b1-2)Man(a1-6)]Man(b1-4)GlcNAc(b1-4)[Fuc(a1-6)]GlcNAc
Summary of the method: as §1

[23] = target: Fuc(a1-2)[GalNAc(a1-3)]Gal(b1-4)GlcNAc(b1-3)Gal(b1-4)GlcNAc
Summary of the method: as §1

[24] = target: Fuc(a1-2)[GalNAc(a1-3)]Gal(b1-4)GlcNAc(b1-3)Gal(b1-4)GlcNAc(b1-3)Gal(b1-4)GlcNAc
Summary of the method: as §1

[25] = target: Fuc(a1-2)[GalNAc(a1-3)]Gal(b1-4)GlcNAc(b1-3)GalNAc
Summary of the method: as §1

[26] = target: Fuc(a1-2)[GalNAc(a1-3)]Gal(b1-4)GlcNAc(b1-3)[Fuc(a1-2)[GalNAc(a1-3)]Gal(b1-4)GlcNAc(b1-6)]GalNAc
Summary of the method: as §1

[27] = target: Fuc(a1-2)[GalNAc(a1-3)]Gal(b1-4)GlcNAc(b1-6)GalNAc
Summary of the method: as §1

[28] = target: Fuc(a1-2)[GalNAc(a1-3)]Gal(b1-4)[Fuc(a1-3)]GlcNAc
Summary of the method: as §1

[29] = target: Fuc(a1-2)[GalNAc(a1-3)]Gal(b1-4)[Fuc(a1-3)]GlcNAc(b1-3)GalNAc
Summary of the method: as §1

[30] = target: Fuc(a1-2)[GalNAc(a1-4)]Gal(b1-4)GlcNAc
Summary of the method: as §1

B1: CcfD (Bacteroides vulgatus), A6KYX8 (protein)
chain: MKYKNYFKSIIYLALGAFTLGSCEDFLDRQEDEKLTFDKIWESRNTTQQYWLNAMSFLPNENGSLQGDTEPYLGASDECTIAYDRQYRWINFGTWNPSQVPYYKMDHYYKGIRECNIFLQNVYKCSDPLVTKDQLDEWYWQTRFARAYYYFLMMRDYGPVFLLGDDLLDFTASTEELYRPRNTWDQCVNYVVSEMTQCAESGVVLQQSDLPAAKWGLATVGTCHAVISRLLLYSARPLFNGNKLYSTVKNPDAPDFPELSGVKLFPELDNTKWQKAAEAAKKLIDNPCYELYRAGNDNPYEDYYGVTHETWNKELIWTDRYNGLFSWGVGTVPTGVAGTAYGAVGPTQALVDAYAMNTGWYPITGYEADGTPIVEPLSGYELASELEKSSWIYPSGGWSNKADFEIEAPNMYKDREPRFYVTVFFGGNQWLHGNSATSISFAKGGNGNKSHDYPKSGYLCNRFYDHKLNSSEGQWGNITFPVFRLGEIYLNFIEAVLECKKNGVALDPSYEALAMEKWADLRKRAGLDPITSIYGQVSTEELIQLCRKERQIELAFERHRYFDTRTWMIATQTDNGKMYGMNTSCPLDAGMKGTETPDGFWERTAFETRVFQNKHYLYPFSQRELDRNKLLTQNYGW
[1]
  glycan array binding signal (z-score): -0.566
[2]
  glycan array binding signal (z-score): -0.683
[3]
  glycan array binding signal (z-score): 0.414
[4]
  glycan array binding signal (z-score): -1.06
[5]
  glycan array binding signal (z-score): 0.176
[6]
  glycan array binding signal (z-score): 0.191
[7]
  glycan array binding signal (z-score): 0.89
[8]
  glycan array binding signal (z-score): 0.465
[9]
  glycan array binding signal (z-score): -0.495
[10]
  glycan array binding signal (z-score): -0.205
[11]
  glycan array binding signal (z-score): 1.49
[12]
  glycan array binding signal (z-score): -0.398
[13]
  glycan array binding signal (z-score): 0.201
[14]
  glycan array binding signal (z-score): -0.622
[15]
  glycan array binding signal (z-score): -0.607
[16]
  glycan array binding signal (z-score): 0.404
[17]
  glycan array binding signal (z-score): -0.82
[18]
  glycan array binding signal (z-score): -0.353
[19]
  glycan array binding signal (z-score): -0.439
[20]
  glycan array binding signal (z-score): 0.054
[21]
  glycan array binding signal (z-score): 4.4
[22]
  glycan array binding signal (z-score): -0.266
[23]
  glycan array binding signal (z-score): 0.166
[24]
  glycan array binding signal (z-score): -0.825
[25]
  glycan array binding signal (z-score): 0.155
[26]
  glycan array binding signal (z-score): 0.323
[27]
  glycan array binding signal (z-score): -0.871
[28]
  glycan array binding signal (z-score): 0.648
[29]
  glycan array binding signal (z-score): 0.46
[30]
  glycan array binding signal (z-score): -1.07
